Measured values taken from PubChem BioAssay AID638 (SRMLSC, 2007).
Out of some 1,300 compounds screened, about 65 (5%) were called active.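 How the source made its calls: active means growth inhibition reaching a set limit at one or more tested doses; inactive means the rest.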 This is one part of the list. Results with a measured potency or affinity are listed apart.

Test: wild-type E. coli BW25113 antibacterial activity – OD615, dose response (AID 638)
Details: at 100 µM (top of the series) unless noted
Summary of the method: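 Assay system: E. coli BW25113 wild type. Doses: compound concentration series. Timing: 20 h compound exposure, 37 °C. Technique: OD615 absorbance. Medium: LB broth containing kanamycin at 50 µg/mL. Benchmarks: chloramphenicol at 30 µM final as inhibition control. Measure: IC50 from 4-parameter logistic, bounds fixed 0–100%.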

Growth inhibition, inactive:
CCCc1nc2oc3cc(OC)ccc3c(=O)c2c(=O)n1Cc1ccco1 -1.23%, N#Cc1cn(Cc2ccccc2)c2ccccc12 6%, COC(=O)CSc1nc(N2CCCCC2)c2c(c1C#N)CCCC2 -13.1%, Cn1nc(-c2ccc(N3CCOCC3)c(NC(=O)COc3ccccc3)c2)c2ccccc2c1=O -11.5%, CSc1nc2ccc(NS(=O)(=O)c3ccc(Cl)s3)cc2s1 16.1%, CCOC(=O)C1CCN(c2ncnc3c2oc2ccc(Br)cc23)CC1 -3.27%, CC1=CC(C)(C)N(C(=O)c2ccc(F)cc2)c2cc3c(cc21)OCO3 -8.31%, N#Cc1c(N)oc(-c2ccc3c(c2)OCO3)c1-c1ccc2c(c1)OCO2 10.1%, COc1ccc(-n2c(COc3ccccc3)nnc2SCc2ccc(C#N)cc2)cc1 7.49%, Cc1ccc(C)c(Cn2c(CN(C)Cc3ccccc3)nc3c2c(=O)n(C)c(=O)n3C)c1 -10%, CC(C)Cc1cc(C(=O)Nc2cc(Br)ccc2O)no1 -6.03%, N=c1c2c(-c3ccccc3)c(-c3ccccc3)n(Cc3ccco3)c2ncn1Cc1ccco1 8.39%, CCCCn1nc(NC(=O)c2cccs2)c2cc3ccccc3nc21 2.32%, COC(=O)C1=C(C)N(C)C(C)=C(C(=O)OC)C1c1ccc(F)c(Br)c1 5.26%, Fc1ccc(Cn2nnnc2C(c2cccs2)N2CCCCCC2)cc1 (stereo not given) -1.95%, Cc1ccc(-c2csc(N(CC3CCCO3)C(=O)c3ccco3)n2)cc1 (stereo not given) -3.37%, CC1(C)COCN1S(=O)(=O)c1ccc(C(=O)Nc2nnc(-c3ccc(Cl)s3)o2)cc1 -1.23%, O=C(O)c1cc(Cl)c2ccccc2c1O 5.04%, COc1ccc(N(C2CSC2)S(=O)(=O)c2ccccc2)cc1 -6.81%, Cc1sc(NC(=O)c2ccco2)c(CN2CCN(c3ccccn3)CC2)c1C -12.8%, O=C(COn1nnc2ccc(C(F)(F)F)cc21)Nc1nnc(-c2ccccc2)o1 -3.92%, CCCCCCn1c(N2CCN(c3ccccc3)CC2)nc2c1c(=O)n(C)c(=O)n2C -13.4%, CCOC(=O)N1CCC(Nc2nc3ccccc3nc2NS(=O)(=O)c2ccc(Cl)cc2)CC1 5.37%, Cc1ccc(S(=O)(=O)N(Cc2ccc(F)cc2)Cc2ccco2)cc1 7.59%

Growth inhibition, active:
O=C(Nc1nc2n(n1)C(c1ccc(Cl)cc1)CC(c1ccc(Cl)cc1)N2)c1ccco1 (stereo not given) 13%
